Reference: publication PMC8913359
Results are given in words; binding and its absence hold for the method and conditions named. Binding seen in cells or lysates may run through a third protein. Some binding calls cover weakened binding; strength is not graded here. For part of these data: Sequences can lack the tags named with a protein. Values belong to the molecule of their own block, whether it stands above or below them.

Chains of the proteins cited; added tags and fusions are not shown.
UniProt Q96DH6: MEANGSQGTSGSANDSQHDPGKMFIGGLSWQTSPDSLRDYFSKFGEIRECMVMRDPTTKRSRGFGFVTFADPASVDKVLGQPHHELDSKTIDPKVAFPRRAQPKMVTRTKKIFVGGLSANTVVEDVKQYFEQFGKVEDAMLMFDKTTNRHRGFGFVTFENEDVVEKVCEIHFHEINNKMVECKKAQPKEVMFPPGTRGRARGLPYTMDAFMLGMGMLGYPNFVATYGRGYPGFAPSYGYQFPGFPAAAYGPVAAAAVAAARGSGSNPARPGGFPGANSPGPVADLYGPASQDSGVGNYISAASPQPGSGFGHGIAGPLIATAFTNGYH

Experiments:
[1] = biological target: T1, Flag-LIN28A (human) (UniProt Q9H9Z2); assay: co-IP; Flag-IP from lysates of CAL51 cells stably expressing the Flag-tagged protein; anti-FLAG M2 magnetic beads overnight at 4 °C; 50 mM Tris-HCl pH 7.5, 100 mM NaCl, 1% Triton X-100, 0.1 mM EDTA, 0.5 mM MgCl2, 10% glycerol; four washes; Western blot
T1 sequence: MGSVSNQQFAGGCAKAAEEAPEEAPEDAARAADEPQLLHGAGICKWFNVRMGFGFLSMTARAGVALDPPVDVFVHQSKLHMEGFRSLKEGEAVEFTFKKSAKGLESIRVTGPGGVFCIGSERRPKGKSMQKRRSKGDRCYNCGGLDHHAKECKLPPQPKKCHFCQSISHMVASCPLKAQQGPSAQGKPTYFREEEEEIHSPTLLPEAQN

[2] = biological target: T2, Flag-LIN28B (human) (UniProt Q6ZN17); assay: as above
T2 sequence: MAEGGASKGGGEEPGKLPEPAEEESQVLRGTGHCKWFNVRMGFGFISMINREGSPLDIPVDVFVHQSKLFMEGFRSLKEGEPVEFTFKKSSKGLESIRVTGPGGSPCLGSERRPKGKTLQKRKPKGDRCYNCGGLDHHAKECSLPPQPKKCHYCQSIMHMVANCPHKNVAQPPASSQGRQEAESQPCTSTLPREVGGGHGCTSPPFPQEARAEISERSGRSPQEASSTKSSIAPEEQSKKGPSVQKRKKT

[3] = biological target: T1, Flag-LIN28A (human); assay: co-IP; MCF-10A cells; no panel is named for these cells
[4] = biological target: T3, LIN28A (endogenous) (human (endogenous in CAL51)) (UniProt Q9H9Z2); assay: co-IP; endogenous proteins in CAL51 cells; Western blot
T3 sequence: T1 sequence

[5] = biological target: T4, FLAG-tagged LIN28A (human) (UniProt Q9H9Z2); assay: co-IP; exogenous tagged proteins (full-length and truncated constructs) transfected into 293T cells; Western blot
T4 sequence: T1 sequence

[6] = biological target: Flag-MSI2 (human) (UniProt Q96DH6); assay: co-IP; Flag-IP from lysates of CAL51 cells stably expressing the Flag-tagged protein; anti-FLAG M2 magnetic beads overnight at 4 °C; 50 mM Tris-HCl pH 7.5, 100 mM NaCl, 1% Triton X-100, 0.1 mM EDTA, 0.5 mM MgCl2, 10% glycerol; four washes; Western blot

binding [1]: binds
binding [2]: binds
binding [3]: binds
binding [4]: binds
Molecule: MSI2 (endogenous) (from UniProt Q96DH6 1-328)

binding [5]: binds
Molecule: MYC-tagged MSI2 (from UniProt Q96DH6 1-328)

binding [6]: binds
B1: LIN28A (endogenous) (protein, UniProt Q9H9Z2 1-209)
chain: T1 sequence
